Experiments:
[1] = Perfumer scaling of ease of incorporation into a fragrance composition; parameters: key: 5—Difficult; 3—Acceptable; 1—Very easy; conditions: compound at 10% (wt.) in fragrance; judged by a perfumer
[2] = Odor Value (headspace quantity divided by perception threshold); conditions: quantity in headspace (ng/l) divided by perception threshold (ng/l)

In the case of COc1ccc(OC)c(/C=C/C(=O)OCCC(C)CCC=C(C)C)c1 (centres unmarked) [GR 85-3260], the “SCORE (ease of incorporation into a fragrance composition without significant distortion)” value [1] is reported as 1.
With CCCCCCC(C=O)=Cc1ccccc1 [Hexyl Cinnamic Aldehyde, reference compound] the “Odor Value” [2] was “(Odor Value = 384”.
For CCCCC(C)COC(=O)C1=Cc2ccc(OC)cc2CC1 (centres unmarked) [GR 85-6495], the “SCORE (ease of incorporation into a fragrance composition without significant distortion)” value [1] was 1.
With CCCCCCOC(=O)c1ccccc1 [Hexyl Benzoate, reference compound] the “Odor Value” [2] was “(Odor Value = 1000” and the “SCORE (ease of incorporation into a fragrance composition without significant distortion)” value [1] was 3.
With CCCCC(C)COC(=O)c1cc2ccccc2oc1=O (centres unmarked) [GR 85-6924] the “SCORE (ease of incorporation into a fragrance composition without significant distortion)” value [1] was 1.
In the case of O=C/C=C/c1ccccc1 [Cinnamic Aldehyde, reference compound], the “Odor Value” [2] is reported as “(Odor Value = 12000)” and the “SCORE (ease of incorporation into a fragrance composition without significant distortion)” value [1] is reported as 5.
In the case of CCCCC(CC)COC(=O)/C=C/c1ccc(OC)cc1 (centres unmarked) [OMC, Octyl methoxy cinnamate], the “SCORE (ease of incorporation into a fragrance composition without significant distortion)” value [1] is reported as 1.
For C/C(=C\c1ccccc1O)C(=O)OCCC(C)CCc1ccccc1 (centres unmarked) [GR 85-1407], the “SCORE (ease of incorporation into a fragrance composition without significant distortion)” value [1] was 3.
With CC(C)=CCCC(C)CCOC(=O)/C(C#N)=C/c1ccccc1O (centres unmarked) [GR 85-2661] the “SCORE (ease of incorporation into a fragrance composition without significant distortion)” value [1] was 3.
